According to PMC12000569:
These are yes or no findings as the source states them, for the method shown. Binding seen in cells or lysates may run through a third protein. A result given as binding can be weak or reduced; the word gives no strength. Sequences can lack the tags named with a protein.

Molecular target: T1, Myc-tagged IFI6 (UniProt P09912)
T1 sequence: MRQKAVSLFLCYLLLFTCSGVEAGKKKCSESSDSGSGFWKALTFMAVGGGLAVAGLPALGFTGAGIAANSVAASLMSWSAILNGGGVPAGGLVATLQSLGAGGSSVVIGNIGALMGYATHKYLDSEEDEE
Test: co-IP; Fig. 6B-F; Flag-, His- and Myc-tagged proteins and their truncation mutants; cell lysate in IP lysis buffer, magnetic beads with selected antibodies, overnight at 4 °C, Western blot; cells not given

- binding: binds
Substance: M1 domain of HSP90AA1 (His-tagged truncation mutant) (domain or fragment)
